# Test results taken from the supplement of paper PMC10338343.
# ± gives the standard deviation. This is a selection; strong and weak results do not stand in their true shares. Many entries were measured with a wide error. This is one part of the list.
# How the values were obtained:
# [1] = test system: MIWI (PIWIL1) piRISC loaded with L1MC piRNA (30 nt); assay: pre-steady-state target cleavage rate (min^-1); higher = faster piRNA-guided slicing of the target; settings: guide: L1MC piRNA 5'p-UAACUAAAUACUAUGCAAGCUGUAGGUCCU
# Procedure, shortened: (§1)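 Cleave-'n-Seq reactions paired 0.1 nM transcribed, DNA-blocked target RNA library with 1 nM active affinity-purified piRISC holding one synthetic guide, plus or minus 500 nM GTSF1 partner protein, in HEPES–potassium acetate buffer at 33 °C for 0–8 or 0–960 min. After sequencing of uncleaved targets and normalisation to depth and weakly complementary targets, the pre-steady-state cleavage rate was taken from a burst-and-steady-state fit. Three trials were pooled, and k3 was capped at 0.0001 min^-1.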
# [2] = test system: EfPiwi piRISC loaded with L1MC piRNA (26 nt); assay: pre-steady-state target cleavage rate (min^-1); guide: L1MC piRNA 5'p-UAACUAAAUACUAUGCAAGCUGUAGG; higher = faster piRNA-guided slicing of the target
# Procedure, shortened: as §1
# [3] = test system: MILI (PIWIL2) piRISC loaded with L1MC piRNA (26 nt); assay: pre-steady-state target cleavage rate (min^-1); MIWI and MILI are mouse PIWI proteins and EfPiwi is from a freshwater sponge; tags in brackets are library labels; higher = faster piRNA-guided slicing of the target; settings: guide: L1MC piRNA 5'p-UAACUAAAUACUAUGCAAGCUGUAGG
# Procedure, shortened: as §1
# [4] = auxiliary factor: 500 nM mouse GTSF1
# [5] = auxiliary factor: none (no GTSF1)
# [6] = auxiliary factor: 500 nM Ephydatia muelleri Gtsf1
# [7] = auxiliary factor: none (no Gtsf1)
sequence,measurement,setting,value
UCCUGGAUGUCCUUGCCAUAGUAUUUAGUUA,pre-steady-state target cleavage rate,[1]; [4],0.00165 ± 0.0065
same,pre-steady-state target cleavage rate,[1]; [5],0.000553 ± 0.014
same,pre-steady-state target cleavage rate,[2]; [6],0.00115 ± 0.0074
UCCUGGAUGUCGUUGCUAUGUAUUUAGUUA,pre-steady-state target cleavage rate,[1]; [4],0.000263 ± 0.033
same,pre-steady-state target cleavage rate,[1]; [5],0.000686 ± 0.014
same,pre-steady-state target cleavage rate,[2]; [6],0.000292 ± 0.013
UCCUCCUACAGCUUGGUUAGUAUUUAGUAA,pre-steady-state target cleavage rate,[1]; [4],0.523 ± 0.043
same,pre-steady-state target cleavage rate,[1]; [5],0.00502 ± 0.0015
same,pre-steady-state target cleavage rate,[2]; [6],0.00533 ± 0.0032
UCCUGGAACAGCUUGGAUAGUAAUUAGUUA,pre-steady-state target cleavage rate,[1]; [4],0.565 ± 0.055
same,pre-steady-state target cleavage rate,[1]; [5],0.0197 ± 0.0059
same,pre-steady-state target cleavage rate,[2]; [6],0.00719 ± 0.0026
UCCUGGAUGAGCUUGCAUAGUUUUAGUUA,pre-steady-state target cleavage rate,[1]; [4],0.00219 ± 0.0064
same,pre-steady-state target cleavage rate,[1]; [5],0.00146 ± 0.0049
same,pre-steady-state target cleavage rate,[2]; [6],0.000844 ± 0.0047
UCCUGGAUGUCGAACGUAUGUAUUAUGUUA,pre-steady-state target cleavage rate,[3]; [5],0.000134 ± 0.041
UCCUGGAUCAGCUUGCUAGUAUUUAGUUA,pre-steady-state target cleavage rate,[1]; [4],0.00354 ± 0.004
same,pre-steady-state target cleavage rate,[1]; [5],0.00166 ± 0.0033
same,pre-steady-state target cleavage rate,[2]; [6],0.00126 ± 0.0046
UCCUGGAUGAGCUUGCUAGUAUUUAGUUA,pre-steady-state target cleavage rate,[1]; [4],0.00193 ± 0.0057
same,pre-steady-state target cleavage rate,[1]; [5],0.000752 ± 0.008
same,pre-steady-state target cleavage rate,[2]; [6],0.000954 ± 0.0061
UCCUGGUAGUGCUUGCAUAGUAUUUACAAA,pre-steady-state target cleavage rate,[1]; [4],0.00283 ± 0.0053
same,pre-steady-state target cleavage rate,[1]; [5],0.00157 ± 0.0051
same,pre-steady-state target cleavage rate,[2]; [6],0.00135 ± 0.0029
UCCUGGUACAGCUUGCAAAGUAUUUAGUAA,pre-steady-state target cleavage rate,[3]; [5],0.00289 ± 0.0032
UCCUGGAUGUCGUUGCUUAGUAUUUAGUAA,pre-steady-state target cleavage rate,[1]; [4],0.000441 ± 0.032
same,pre-steady-state target cleavage rate,[1]; [5],0.00104 ± 0.0069
same,pre-steady-state target cleavage rate,[2]; [6],0.00101 ± 0.0081
UCCUGGAUGUCGAAGCAUAGUAUAAAGUUA,pre-steady-state target cleavage rate,[3]; [5],0.00151 ± 0.004
UCCUGGAUGUCGAACGUAAGUAUUUAGUUG [g2:g12:cont:t1G],pre-steady-state target cleavage rate,[3]; [5],0.000273 ± 0.015
UCCUCGUACAGCUUGCAAAGUAUUUAGUUA,pre-steady-state target cleavage rate,[1]; [4],1.32 ± 0.048
same,pre-steady-state target cleavage rate,[1]; [5],0.0595 ± 0.012
same,pre-steady-state target cleavage rate,[2]; [6],0.143 ± 0.032
UCCUGGAUGUCGUUGCAUAGUUAUUUAGUUA,pre-steady-state target cleavage rate,[1]; [4],0.000971 ± 0.011
same,pre-steady-state target cleavage rate,[1]; [5],0.00186 ± 0.0049
same,pre-steady-state target cleavage rate,[2]; [6],0.000386 ± 0.011
UCCUGGUACAGCUUGCAUUCAAUUUAGUUA,pre-steady-state target cleavage rate,[1]; [4],0.00302 ± 0.0037
same,pre-steady-state target cleavage rate,[1]; [5],0.000302 ± 0.012
same,pre-steady-state target cleavage rate,[2]; [6],0.000236 ± 0.02
UCCUGGAUCAGCAACCAUAGUAUUUAGAAA,pre-steady-state target cleavage rate,[1]; [4],0.0016 ± 0.0076
same,pre-steady-state target cleavage rate,[1]; [5],0.000516 ± 0.015
same,pre-steady-state target cleavage rate,[2]; [6],0.000506 ± 0.011
UCCUCCUACAGCUUACAUAGUAUUUAGUUA,pre-steady-state target cleavage rate,[1]; [4],1.14 ± 0.031
same,pre-steady-state target cleavage rate,[1]; [5],0.0275 ± 0.0041
same,pre-steady-state target cleavage rate,[2]; [6],0.106 ± 0.028
UCCUGGAUGUCGAACGUAAGUCAUUUAGUUA,pre-steady-state target cleavage rate,[3]; [5],0.000145 ± 0.03
UCCUGGUACAGCUUGCAUAGUAUUUAGAUUA,pre-steady-state target cleavage rate,[1]; [4],0.179 ± 0.046
same,pre-steady-state target cleavage rate,[1]; [5],0.0165 ± 0.0061
same,pre-steady-state target cleavage rate,[2]; [6],0.00491 ± 0.0025
UCCUGGAUGUCGAACGUAAGUGUUUAGUUA,pre-steady-state target cleavage rate,[3]; [5],0.000184 ± 0.021
UCCUGGUACACCUUGCAUAGUAUUUAGUAA,pre-steady-state target cleavage rate,[1]; [4],0.334 ± 0.078
same,pre-steady-state target cleavage rate,[1]; [5],0.0104 ± 0.0044
same,pre-steady-state target cleavage rate,[2]; [6],0.00351 ± 0.0028
UCCUGGAUGAGCUUGCAAUCUAUUUACAAA,pre-steady-state target cleavage rate,[1]; [4],0.000129 ± 0.025
same,pre-steady-state target cleavage rate,[1]; [5],0.000676 ± 0.0079
same,pre-steady-state target cleavage rate,[2]; [6],0.000238 ± 0.016
UCCUGGAUGUGCUUGCAUAGAAUAUAGUUA,pre-steady-state target cleavage rate,[1]; [4],0.00334 ± 0.0045
same,pre-steady-state target cleavage rate,[1]; [5],0.00175 ± 0.005
same,pre-steady-state target cleavage rate,[2]; [7],0.000129 ± 0.069
UCCUGGAUGUCGAACGAUACUAUUUAGAUA,pre-steady-state target cleavage rate,[1]; [4],0.000104 ± 0.018
same,pre-steady-state target cleavage rate,[1]; [5],0.000144 ± 0.049
same,pre-steady-state target cleavage rate,[2]; [7],< 0.0001
UCCUGCUACAGCUUGCAUAGUAUUUACAAA,pre-steady-state target cleavage rate,[3]; [5],0.00212 ± 0.0033
UCCUGCUACAGCUUGCAUAGUAAAUAGUUA,pre-steady-state target cleavage rate,[3]; [5],0.00264 ± 0.0029
UCCUGGAUGUCCUUGAUAGUAUUUAGUUA,pre-steady-state target cleavage rate,[1]; [4],0.00369 ± 0.0043
same,pre-steady-state target cleavage rate,[1]; [5],0.00174 ± 0.0034
same,pre-steady-state target cleavage rate,[2]; [6],0.000418 ± 0.0083
UCCUGGAUGUGCUUGCAAUGUAUUUAGAAA,pre-steady-state target cleavage rate,[1]; [4],0.00144 ± 0.0066
same,pre-steady-state target cleavage rate,[1]; [5],0.00132 ± 0.0061
same,pre-steady-state target cleavage rate,[2]; [6],0.000387 ± 0.011
UCCUGGAUGUCGUUGCAUAGUAUAUAGUUA,pre-steady-state target cleavage rate,[1]; [4],0.00163 ± 0.0056
same,pre-steady-state target cleavage rate,[1]; [5],0.00154 ± 0.0047
same,pre-steady-state target cleavage rate,[2]; [6],0.00235 ± 0.0045
UCCUGGAUGUCGAACGUAUGUAGUUUAGUUA,pre-steady-state target cleavage rate,[3]; [5],0.000164 ± 0.04
UCCUCCUAGAGCUUGCAUAGUAUUUAGAAA,pre-steady-state target cleavage rate,[3]; [5],0.000945 ± 0.0067
UCCUGGAACAGCUUGCAAAGUAUAUAGUUA,pre-steady-state target cleavage rate,[1]; [4],0.459 ± 0.037
same,pre-steady-state target cleavage rate,[1]; [5],0.0164 ± 0.0061
same,pre-steady-state target cleavage rate,[2]; [7],0.000278 ± 0.035
UCCUGGUACAGAUUGCAUAGUAUUUAGUUA,pre-steady-state target cleavage rate,[1]; [4],0.58 ± 0.071
same,pre-steady-state target cleavage rate,[1]; [5],0.0178 ± 0.0046
same,pre-steady-state target cleavage rate,[2]; [6],0.0131 ± 0.0038
UCCUGGAACAGCUUGCAUAGUAUUAUGUUA,pre-steady-state target cleavage rate,[1]; [4],0.169 ± 0.023
same,pre-steady-state target cleavage rate,[1]; [5],0.013 ± 0.0044
same,pre-steady-state target cleavage rate,[2]; [7],0.000594 ± 0.014
UCCUGCUACAGGUAGCAUAGUAUUUAGUUA,pre-steady-state target cleavage rate,[3]; [4],0.367 ± 0.031
UCCUGGAUGUCGAACGAUAGUAAUAAGUUA,pre-steady-state target cleavage rate,[3]; [4],< 0.0001
UCCUCCUACAGCUUGCAUAGUAAUUAGUAA,pre-steady-state target cleavage rate,[3]; [5],0.00203 ± 0.0031
UCCUGGAUCAGCUUGCAUAGUAAUUAGAAA,pre-steady-state target cleavage rate,[3]; [5],0.00245 ± 0.0036
UCCUGCAAGAGCUUGCAUAGUAUUUAGUUA,pre-steady-state target cleavage rate,[3]; [4],0.292 ± 0.025
UCCUGGAUGUCGUUGCAUAGUAUUAACUUA,pre-steady-state target cleavage rate,[3]; [5],0.000103 ± 0.061
UCCUGGAUCAGCUUGCAUAGAAUUUACUUA,pre-steady-state target cleavage rate,[3]; [5],0.00147 ± 0.0045
UCCUCCUACAGCUUGCAUAGUUAAUAGUUA,pre-steady-state target cleavage rate,[3]; [5],0.0019 ± 0.0037
UCCUGGAUGUCGAACGUUUGUAUUUAGAUA,pre-steady-state target cleavage rate,[3]; [5],0.000111 ± 0.036
UCCUGGAUGUCGAACGUAUGUAUAAAGUUA,pre-steady-state target cleavage rate,[3]; [5],< 0.0001
UCCUGGAUGUCGAACGAUAGUAAAAAGUUA,pre-steady-state target cleavage rate,[3]; [5],0.00016 ± 0.032
UCCUGGAUGUCGUUGGAUAGUAUUUUGUUA,pre-steady-state target cleavage rate,[3]; [5],0.000396 ± 0.015
UCCUGGAUGAGCUUGCAUAGAAUUUAGAUA,pre-steady-state target cleavage rate,[3]; [5],0.000544 ± 0.011
UCCUGGAUGUCGAACGUUAGUAAUUAGUUA,pre-steady-state target cleavage rate,[3]; [5],< 0.0001
UCCUGGAACACGUUGCAUAGUAUUUAGUAA,pre-steady-state target cleavage rate,[3]; [5],0.00299 ± 0.0037
UCCUGCUACAGGUUGCAUAGAAUUUAGUUA,pre-steady-state target cleavage rate,[3]; [5],0.00241 ± 0.0026
UCCUGGAUGUCGAACCAUAGUUAAUAGUUA,pre-steady-state target cleavage rate,[3]; [5],0.000202 ± 0.021
UCCUGGAUCAGCUUGCAUAGAAUUUUGUUA,pre-steady-state target cleavage rate,[3]; [5],0.00106 ± 0.0043
UCCUGGAUGUCGAACGUAUCUCAUUUAGUUA,pre-steady-state target cleavage rate,[3]; [5],0.000107 ± 0.029
UCCUGGAUGUCGAACGUAAGUAAUUAGUUA,pre-steady-state target cleavage rate,[3]; [5],< 0.0001

# Three entries from above, tab-delimited.
sequence	measurement	setting	value
UCCUCCUACAGCUUGGUUAGUAUUUAGUAA	pre-steady-state target cleavage rate	[1]; [4]	0.523 ± 0.043
UCCUGGAUGUCGUUGGAUAGUAUUUUGUUA	pre-steady-state target cleavage rate	[3]; [5]	0.000396 ± 0.015
UCCUGGAUGAGCUUGCAUAGAAUUUAGAUA	pre-steady-state target cleavage rate	[3]; [5]	0.000544 ± 0.011

# Quoted at random: 2 records from the list
sequence,measurement,setting,value
UCCUGGAUGUCGAACGUAAGUCAUUUAGUUA,pre-steady-state target cleavage rate,[3]; [5],0.000145 ± 0.03
UCCUGGAUGAGCUUGCAUAGUUUUAGUUA,pre-steady-state target cleavage rate,[1]; [4],0.00219 ± 0.0064
